Patent publication US20160007606A1, “MICROBIOCIDAL PYRAZOLE DERIVATIVES” (SYNGENTA PARTICIPATIONS AG, priority 2012, published 2016)
Some entries share one result that the patent states for a list of compounds.

Tested on: Pythium ultimum
Test: Pythium ultimum / liquid culture (seedling damping off)
Type: cell-based
Conditions: 200 ppm; liquid culture in PDB, growth inhibition determined photometrically 2-3 days after application; compared to untreated control

For `COC(=O)C1CN(c2nc(C3=NOC(c4c(F)cccc4F)C3)cs2)CCN1C(=O)Cn1nc(C(F)(F)F)cc1C` (stereo not shown) [I.az.038, 4-{4-[5-(2,6-difluoro-phenyl)-4,5-dihydro-isoxazol-3-yl]-thiazol-2-yl}-1-[2-(5-methyl-3-trifluoromethyl-pyrazol-1-yl)-acetyl]-piperazine-2-carboxylic acid methyl ester], the disease control was “at least 80%”.
